US10322114B2 (Above and Beyond NB LLC, priority 2017, dated 2019)

How the values were obtained:
[1] = dog, IT infusion 0.2 mg/hour plus 50 mg oral tablet twice daily, 5 days
Protocol: Observations for morbidity, mortality, injury, and the availability of food and water were conducted twice daily for all animals.

[2] = 48 hours or 1 week
[3] = oral 1.3 mg/kg BID 14 days versus IT 0.25 mg/hour 5 days; higher in oral
[4] = in vivo; conditions: Mongrel, dog, 0.1 mg/hour, elimination half-life of riluzole from plasma, dog #1205, after 3 weeks continuous IT infusion 0.1 mg/hour

Nc1nc2ccc(OC(F)(F)F)cc2s1 [Riluzole, 2-Amino-6-(trifluoromethoxy)benzothiazole]
distribution in the brain [1]: found throughout the brain
biodistribution in the spinal cord ([1]; highest levels around the catheter tip): good biodistribution throughout the spinal cord
form change of undissolved riluzole (XRPD) ([2]; 5% and 1% HP-β-CD, 5° C. and 40° C.): No form change
crystal form change of undissolved riluzole (XRPD) ([2]; any concentration of HP-β-CD, room temperature): no crystal form change
riluzole accumulation in brain tissue, oral-treated compared to IT-treated dogs [3]: approximately 700 fold
half-life [4]: 14 h
